Experimental data published in US6900183B2, “Macrolide antibiotics” (Glaxo Group Limited, priority 2000, dated 2005).
Some entries share one result that the patent states for a list of compounds. Some ranges recur; such a range may be that of the whole group of compounds.

What follows are substances tested on erythromycin resistant Streptococcus pneumoniae strains (assay: MIC against erythromycin resistant Streptococcus pneumoniae strains).
Type: cell-based

MIC, 0.1 to 64 µg/mL:
(11S)-3-Decladinosyl-11,12-dideoxy-6-O-[(quinolin-3-yl)-propen-3-yl]-3-oxo-12,11-[oxycarbonyl-methylene]-erythromycin A [Example 3]
(11S,21R)-3-Decladinosyl-11,12-dideoxy-6-O-[(quinolin-3-yl)-propen-3-yl]-3-oxo-12,11-[oxycarbonyl-(cyano)methylene]-erythromycin A [Example 2]
(11S,21R)-3-Decladinosyl-11,12-dideoxy-6-O-[(quinolin-7-yl)-propen-3-yl]-3-oxo-12,11-[oxycarbonyl-(cyano)-methylene]-erythromycin A [Example 6]
(11S,21R)-3-Decladinosyl-11,12dideoxy-6-O-[(quinolin-6-yl)-propen-3-yl]-3-oxo12,11-[oxycarbonyl-(cyano)-methylene]-erythromycin A [Example 5]
